The target of assay [1] is IL-31RA from rabbit (rabbit). The experiment in a line: SPR (Biacore T100). For orientation: In SPR one partner is held on a chip, and binding of the other changes the refractive index at the surface.
In another assay the target is IL-31RA from rat (rat). The experiment in a line: SPR (Biacore T100).

No constants are given. Whether binding was seen depends on the method and setting.

B1: anti-human IL-31RA antibody CIM331 (nemolizumab) (antibody, V domains shown)
VH: QVQLVQSGAEVKKPGASVKVSCKASGYTFTGYIMNWVRQAPGQGLEWMGLINPYNGGTDYNPQFQDRVTITADKSTSTAYMELSSLRSEDTAVYYCARDGYDDGPYTLETWGQGTLVTVSS
VL: DIQMTQSPSSLSASVGDRVTITCQASEDIYSFVAWYQQKPGKAPKLLIYNAQTEAQGVPSRFSGSGSGTDFTLTISSLQPEDFATYYCQHHYDSPLTFGGGTKVEIKR
In the case of B1, the binding entry (in assay [1]; with IL-31RA from rat (rat)) was “no binding” each time.

Source of the values: patent publication US20230391878A1.
